Assay: general procedure: solution-phase peptide synthesis; HATU / N,N-diisopropylethylamine; EDCI/HOBt; NHS active esters
Settings: trifluoroacetic acid salt
[1] = late stage modification step, LC-MS

Substance	crude purity (method not given) [1]	final purity (method not given) (conjugation step, LC-MS) [% purity]	conjugation yield (conjugation step)	also measured
2-[[2-[[2-[[2-[tert-butoxycarbonyl(methyl)amino]acetyl]-methyl-amino]acetyl]-methyl-amino]acetyl]-methyl-amino]acetic acid	94%	–	–	step yield (late stage modification step): 93%
(2S)-1-[(18S)-18-(2-tert-butoxy-2-oxoethyl)-2,2,5,8,11,14-hexamethyl-4,7,10,13,16,19-hexaoxo-3-oxa-5,8,11,14,17-pentaazanonadecan-19-yl]pyrrolidine-2-carboxylic acid	99%	–	–	step yield (late stage modification step): 98%
(2S)-1-[(30S)-30-(2-tert-butoxy-2-oxoethyl)-2,2,5,8,11,14,17,20,23,26-decamethyl-4,7,10,13,16,19,22,25,28,31-decaoxo-3-oxa-5,8,11,14,17,20,23,26,29-nonaazahentriacontan-31-yl]pyrrolidine-2-carboxylic acid	–	–	–	crude LC-MS purity [1]: 93% purity; step yield (late stage modification step): 88% yield
(4S)-4,11-Diethyl-3,14-dioxo-3,4,12,14-tetrahydro-1H-pyrano[3′,4′:6,7]indolizino[1,2-b]quinolin-4-yl N-[3-(2-{2-[2-(L-lysylamino)ethoxy]ethoxy}ethoxy)propanoyl]-L-alpha-aspartyl-L-prolyl-L-valinate·trifluoroacetic acid (1:1)	100% purity	–	–	–
(4S)-4,11-Diethyl-3,14-dioxo-3,4,12,14-tetrahydro-1H-pyrano[3′,4′:6,7]indolizino[1,2-b]quinolin-4-yl N-{2-[{2-[{2-[({4-[({(1R)-2-carboxy-1-[3-({3-[(propylcarbamoyl)amino]benzene-1-sulfonyl}amino)phenyl]ethyl}carbamoyl)amino]phenyl}carbamoyl)amino]ethyl} (methyl)amino] ethyl} I(methyl)amino]ethyl}-N-methylglycyl-L-asparaginyl-L-prolyl-L-valinate [B4]	–	96	63%	–
(4S)-4,11-Diethyl-3,14-dioxo-3,4,12,14-tetrahydro-1H-pyrano[3′,4′:6,7]indolizino[1,2-b]quinolin-4-yl N-{3-[2-(2-{2-[(N^2,N^6-di-beta-alanyl-L-lysyl)amino]ethoxy} ethoxy)ethoxy] propanoyl}-L-alpha-aspartyl-L-prolyl-L-valinate	100% purity	–	–	–
(4S)-4,11-diethyl-3,14-dioxo-3,4,12,14-tetrahydro-1H-pyrano[3′,4′:6,7] indolizino[1,2-b]quinolin-4-yl N-methyl-N-(2-{methyl[2-(methylamino) ethyl]amino}ethyl)glycyl-L-asparaginyl-L-prolyl-L-valinate·trifluoroacetic acid (1:1)	100% purity	–	–	–
(4S)-4,11-diethyl-3,14-dioxo-3,4,12,14-tetrahydro-1H-pyrano[3′,4′:6,7] indolizino[1,2-b]quinolin-4-yl N-{2-[{2-[(2-aminoethyl)(methyl)amino]ethyl}(methyl)amino]ethyl}-N-methylglycylglycyl-L-prolyl-L-valinate·trifluoroacetic acid (1:1)	100% purity	–	–	–
(4S)-4,11-diethyl-3,14-dioxo-3,4,12,14-tetrahydro-1H-pyrano[3′,4′:6,7]indolizino[1,2-b]quinolin-4-yl N-(3-{2-[2-(2-{[N^2,N^6-bis(3-{2-[2-(2-aminoethoxy)ethoxy]ethoxy}propanoyl)-L-lysyl]amino}ethoxy)ethoxy]ethoxy}propanoyl)-L-alpha-aspartyl-L-prolyl-L-valinate	100% purity	–	–	step yield (late stage modification step): 98% yield
(4S)-4,11-diethyl-3,14-dioxo-3,4,12,14-tetrahydro-1H-pyrano[3′,4′:6,7]indolizino[1,2-b]quinolin-4-yl N-methyl-N-(2,2,8,11-tetramethyl-4-oxo-3-oxa-5,8,11-triazatridecan-13-yl) glycyl-L-asparaginyl-L-prolyl-L-valinate	–	–	–	final purity (method not given) (coupling step, LC-MS): 55% purity; step yield (coupling step): 37%
(4S)-4,11-diethyl-3,14-dioxo-3,4,12,14-tetrahydro-1H-pyrano[3′,4′:6,7]indolizino[1,2-b]quinolin-4-yl N-methyl-N-(2,2,8,11-tetramethyl-4-oxo-3-oxa-5,8,11-triazatridecan-13-yl) glycylglycyl-L-prolyl-L-valinate	–	–	–	final purity (method not given) (coupling step, LC-MS): 98% purity; step yield (coupling step): 69%
(4S)-4,11-diethyl-3,14-dioxo-3,4,12,14-tetrahydro-1H-pyrano[3′,4′:6,7]indolizino[1,2-b]quinolin-4-yl N-methylglycyl-N-methylglycyl-N-methylglycyl-N-methylglycyl-L-alpha-aspartyl-L-prolyl-L-valinate-trifluoroacetic acid (1/1)	97%	–	–	step yield (late stage modification step): 101%
(4S)-4,11-diethyl-3,14-dioxo-3,4,12,14-tetrahydro-1H-pyrano[3′,4′:6,7]indolizino[1,2-b]quinolin-4-yl N-{2-[(2-{[2-({5-[(2,5-dioxopyrrolidin-1-yl)oxy]-5-oxopentanoyl}amino)ethyl] (methyl) amino} ethyl)(methyl)amino]ethyl}-N-methylglycylglycyl-L-prolyl-L-valinate	–	–	–	final purity (method not given) [1]: 79%; step yield (late stage modification step): 58%
(4S)-4,11-diethyl-3,14-dioxo-3,4,12,14-tetrahydro-1H-pyrano[3′,4′:6,7]indolizino[1,2-b]quinolin-4-yl N-{2-[{2-[(2-aminoethyl)(methyl) amino]ethyl}(methyl)amino]ethyl}-N-methylglycyl-L-asparaginyl-L-prolyl-L-valinate·trifluoroacetic acid (1:1)	–	–	–	final purity (method not given) [1]: 100% purity
(4S)-4,11-diethyl-3,14-dioxo-3,4,12,14-tetrahydro-1H-pyrano[3′,4′:6,7]indolizino[1,2-b]quinolin-4-yl N-{2-[{2-[(2-{[N^2,N^6-bis(14-{4-[({(1R)-2-carboxy-1-[3-({3-[(propylcarbamoyl) amino]benzene-1-sulfonyl}amino)phenyl]ethyl}carbamoyl)amino]anilino}-14-oxo-4,7,10-trioxa-13-azatetradecanan-1-oyl)-L-lysyl]amino}ethyl)(methyl)amino] ethyl}(methyl)amino]ethyl}-N-methylglycyl-L-asparaginyl-L-prolyl-L-valinate	–	100	48% yield	–
(4S)-4,11-diethyl-3,14-dioxo-3,4,12,14-tetrahydro-1H-pyrano[3′,4′:6,7]indolizino[1,2-b]quinolin-4-yl N-{2-[{2-[(2-{[N^2,N^6-bis(14-{4-[({(1S)-2-carboxy-1-[3-({3-[(propylcarbamoyl) amino] benzene-1-sulfonyl}amino)phenyl]ethyl}carbamoyl)amino]anilino}-14-oxo-4,7,10-trioxa-13-azatetradecanan-1-oyl)-L-lysyl]amino}ethyl) (methyl)amino]ethyl}(methyl) amino]ethyl}-N-methylglycyl-L-asparaginyl-L-prolyl-L-valinate	–	100	41% yield	–
(4S)-4,11-diethyl-3,14-dioxo-3,4,12,14-tetrahydro-1H-pyrano[3′,4′:6,7]indolizino[1,2-b]quinolin-4-yl N-{2-[{2-[(2-{[N^2,N^6-bis(N-{2-[{2-[{2-[({4-[({(1S)-2-carboxy-1-[3-({3-[(propylcarbamoyl) amino]benzene-1-sulfonyl}amino)phenyl]ethyl}carbamoyl)amino] phenyl}carbamoyl) amino]ethyl}(methyl)amino]ethyl}(methyl) amino]ethyl}-N-methylglycyl)-L-lysyl]amino}ethyl)(methyl)amino]ethyl}(methyl)amino]ethyl}-N-methylglycyl-L-asparaginyl-L-prolyl-L-valinate	–	100	36% yield	–
(4S)-4,11-diethyl-3,14-dioxo-3,4,12,14-tetrahydro-1H-pyrano[3′,4′:6,7]indolizino[1,2-b]quinolin-4-yl N-{2-[{2-[({4-[({(1R)-2-carboxy-1-[3-({3-[(propylcarbamoyl)amino]benzene-1-sulfonyl}amino)phenyl]ethyl}carbamoyl)amino]phenyl}carbamoyl)(methyl)amino]ethyl} (methyl)amino]ethyl}-N-methylglycyl-L-asparaginyl-L-prolyl-L-valinate	–	93	30%	–
(4S)-4,11-diethyl-3,14-dioxo-3,4,12,14-tetrahydro-1H-pyrano[3′,4′:6,7]indolizino[1,2-b]quinolin-4-yl N-{2-[{2-[{2-[({4-[({(1R)-2-carboxy-1-[3-({3-[(propylcarbamoyl)amino]benzene-1-sulfonyl}amino)phenyl]ethyl}carbamoyl)amino]phenyl}carbamoyl)amino]ethyl}(methyl)amino]ethyl}(methyl)amino]ethyl}-N-methylglycylglycyl-L-prolyl-L-valinate	–	93	72%	–
(4S)-4,11-diethyl-3,14-dioxo-3,4,12,14-tetrahydro-1H-pyrano[3′,4′:6,7]indolizino[1,2-b]quinolin-4-yl N-{2-[{2-[{2-[({4-[({(1S)-2-carboxy-1-[3-({3-[(propylcarbamoyl)amino]benzene-1-sulfonyl}amino)phenyl]ethyl}carbamoyl)amino]phenyl}carbamoyl)amino]ethyl}(methyl)amino] ethyl}(methyl)amino]ethyl}-N-methylglycyl-L-asparaginyl-L-prolyl-L-valinate	–	100	17% yield	–
(4S)-4,11-diethyl-3,14-dioxo-3,4,12,14-tetrahydro-1H-pyrano[3′,4′:6,7]indolizino[1,2-b]quinolin-4-yl N-{2-[{2-[{2-[({4-[({(1S)-2-carboxy-1-[3-({3-[(propylcarbamoyl)amino]benzene-1-sulfonyl}amino)phenyl]ethyl}carbamoyl)amino]phenyl}carbamoyl)amino]ethyl}(methyl)amino]ethyl}(methyl)amino]ethyl}-N-methylglycylglycyl-L-prolyl-L-valinate	–	93	72% yield	–
